Data from publication doi:10.1101/209809.
For part of these data: A negative result means that nothing was seen under these conditions. For part of these data: Weaker means in comparison with the reference protein, sequence or condition of that experiment.

Experiments:
Test in all cases: EMSA
[1] = test system: CPSF-160 + WDR33 (1-572) + CPSF-30; conditions: lower affinity than AAUAAA
CPSF-160 + WDR33 (1-572) = conditions: only weak binding, no CPSF-30
MBP-CPSF-30 (human) = conditions: essentially no binding; residues 1-244

Sequence | binding result [1] | binding result (CPSF-160 + WDR33 (1-572)) | binding result (MBP-CPSF-30 (human))
AACCUCCAAGAAACAAC [17-mer variant PAS RNA (AAgAAA)] | binds more weakly | – | –
AACCUCCAAUAAACAAC [17-mer PAS RNA (AAUAAA)] | – | binds more weakly | no binding
